Some compounds share one wording; it may come from a single statement.
B1: ART2b: rat ADP-ribosyltransferase ART2b (RT6.2), SEQ ID NO:12, wild type (protein, listed as Rattus norvegicus)
chain: MPSNICKFFLTWWLIQQVTGLTGPLMLDTAPNAFDDQYEGCVNKMEEKAPLLLQEDFNMNAKLKVAWEEAKKRWNNIKPSRSYPKGFNDFHGTALVAYTGSIAVDFNRAVREFKENPGQFHYKAFHYYLTRALQLLSNGDCHSVYRGTKTRFHYTGAGSVRFGQFTSSSLSKKVAQSQEFFSDHGTLFIIKTCLGVYIKEFSFRPDQEEVLIPGYEVYQKVRTQGYNEIFLDSPKRKKSNYNCLYSSAGARESCVSLFLVVLPSLLVQLLCLAEP
B2: ART2a(M81R,Y204R): rat ART2a with M81R and Y204R substitutions (protein, UniProt P17982 21-246, looked up, variant M81R Y204R)
T-cell …: LTGPLMLDTAPNAFDDQYEGCVNKMEEKAPLLLKEDFNKSEKLKVAWEEAKKRWNNIKPSRSYPKGFNDFHGTALVAYTGSIGVDFNRAVREFKENPGQFHYKAFHYYLTRALQLLSNGDCHSVYRGTKTRFHYTGAGSVRFGQFTSSSLSKTVAQSPEFFSDDGTLFIIKTCLGVYIKEFSFRPDQEEVLIPGYEVYQKVRTQGYNEIFLDSPKRKKSNYNCLYS
B3: ART2b(R204W): rat ART2b with arginine-to-tryptophan substitution at position 204 (protein, UniProt P20974 21-246, looked up, variant R204W)
T-cell …: LTGPLMLDTAPNAFDDQYEGCVNKMEEKAPLLLQEDFNMNAKLKVAWEEAKKRWNNIKPSRSYPKGFNDFHGTALVAYTGSIAVDFNRAVREFKENPGQFHYKAFHYYLTRALQLLSNGDCHSVYRGTKTRFHYTGAGSVRFGQFTSSSLSKKVAQSQEFFSDHGTLFIIKTCLGVYIKEFSFWPDQEEVLIPGYEVYQKVRTQGYNEIFLDSPKRKKSNYNCLYS
B4: ART2a(N58A,Y204R): rat ART2a with N58A and Y204R substitutions, non-glycosylated (protein, UniProt P17982 21-246, looked up, variant N58A Y204R)
T-cell …: LTGPLMLDTAPNAFDDQYEGCVNKMEEKAPLLLKEDFAKSEKLKVAWEEAKKRWNNIKPSMSYPKGFNDFHGTALVAYTGSIGVDFNRAVREFKENPGQFHYKAFHYYLTRALQLLSNGDCHSVYRGTKTRFHYTGAGSVRFGQFTSSSLSKTVAQSPEFFSDDGTLFIIKTCLGVYIKEFSFRPDQEEVLIPGYEVYQKVRTQGYNEIFLDSPKRKKSNYNCLYS

Test: Chemical sensitivity of ADP-ribose bonds to acid, hydroxylamine and mercuric chloride
Set-up: species or system rat
Conditions: auto-ADP-ribosylated protein, 2 hours at 37° C.; for release of [^32P]ADP-ribose radiolabel by hydroxylamine: 2M NH2OH

Molecule | release of [^32P]ADP-ribose radiolabel by hydroxylamine | release of [^32P]ADP-ribose by hydroxylamine, mercury chloride or acid
B1 | released the [^32P]ADP-ribose radiolabel | 
B2 | released the [^32P]ADP-ribose radiolabel | 
B3 |  | not released
B4 | released the [^32P]ADP-ribose radiolabel | 

Reference: patent publication US7923535B2, “Tryptophan as a functional replacement for ADP-ribose-arginine in recombinant proteins” (The United States of America as represented by the …, priority 2002, dated 2011)
